Measured values published in PubChem BioAssay AID2417 (National Center for Advancing Translational Sciences (NCATS), 2010).
Screen size: about 140,000 compounds; about 4,300 (3.1%) were called active. The inconclusive results got no clear call from the source; some entries with a clear call stand among them for comparison.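 How the source made its calls: active means readout at or below -70, meaning at least 70% loss of cells showing the perinucleolar compartment, a nuclear body marking cancer cells; inconclusive means readout between -30 and a set limit; inactive means the rest.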

Experiment: High Content Assay for Compounds that inhibit the Assembly of the Perinucleolar Compartment;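 further: plate controls were DMSO wells for no effect and camptothecin positive control wells for full effect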
Conditions: PC3M PTB-GFP, PNC prevalence imaging, 16 h; at 10 µM; stronger effect = lower value
How it was run: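 Read-out is percentage of cells bearing a perinucleolar compartment, from automated 20x imaging of fixed, Hoechst-stained PC3M PTB-GFP cells. Cells were seeded 4 h, then exposed 16 h to compound (23 nl of library stock) in duplicate plates.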

Structure (SMILES) | activity change (PNC), negative = inhibition
CCC1(C)Cc2ccccc2/C(=C/C(=O)N2CCCCC2)N1 (stereo not given) | inconclusive: -30.2%
CCOC(=O)c1ccccc1NC(=O)Cc1ccccc1OC | inconclusive: -30.3%
Nn1c(Cc2cccc3ccccc23)nnc1SCc1ccccc1 | inactive: 7.7%
CCCCNC(=S)NNC(=O)c1nn(C)c(C)c1Cl | inconclusive: -41.2%
Cn1c(O)c(N=NC(=O)Cn2c(C(F)(F)F)nc3ccccc32)c2ccccc21 | inconclusive: -61.8%
COc1cc(OC)c(NC(=S)Nc2cc(Cl)cc(Cl)c2)cc1Cl | inactive: -26.2%
O=S1(=O)N=C(Nc2ccc(O)c(CN3CCCCC3)c2)c2ccccc21 | inconclusive: -56.6%
CCOC(=O)c1ccccc1NC1OC(=O)c2ccccc21 (stereo not given) | inconclusive: -74.1%
O=C1C(Oc2ccccc2)C(c2ccc3c(c2)OCO3)N1CCc1ccc(F)cc1 (stereo not given) | inconclusive: -62.6%
CCOC(=O)c1[nH]c(C)c(C(=O)Nc2ccc(C)c(Cl)c2)c1C | inconclusive: -40.8%
CC(=O)NC(CCS(C)(=O)=O)C(=O)N1CCc2ccccc21 (stereo not given) | inconclusive: -63.7%
CC(NC(=O)Cc1ccccc1)c1cc2c(cc1Br)OCCCO2 (stereo not given) | inconclusive: -72.3%
CCOC(=O)c1sc(N(Cc2ccccc2)C(=O)COC(=O)c2ccc(O)cc2)nc1C | inconclusive: -53.9%
Cc1nc(SCC#N)c2c(C)c(C)sc2n1 | inconclusive: -55%
COc1cc(CC(NC(C)=O)C(=O)NC2CCN(c3c(Cc4ccccc4)c(C)nc4ncnn34)CC2)cc(OC)c1 (stereo not given) | inactive: 59.3%
c1ccc(-c2cc(N3CCOCC3)nc(-c3ccccc3)n2)cc1 | active: -82.6%
COc1cc(NC(=O)c2cnn3c(C)cc(C)nc23)c(OC)cc1Cl | inconclusive: -33.6%
C=CCN(CC=C)C(=O)c1ccccc1NC(=O)c1ccccc1C | inconclusive: -41.3%
CC(OC(=O)c1cc2sccc2n1C)C(=O)NCc1cccs1 (stereo not given) | active: -80.6%
Cc1ccc(CSCCNC(=O)c2ccc(Cl)c(S(=O)(=O)N3CCOCC3)c2)cc1 | inactive: 10.7%
O=C(Nc1cccnc1)C1COc2ccccc2O1 (stereo not given) | inconclusive: -46.2%
N#Cc1ccc(-c2cccnc2)nc1SCc1ccc(Cl)c(Cl)c1 | inconclusive: -39.7%
CC(=O)[C@@H]1[C@@H](C(=O)c2ccccc2)[C@]2(C(=O)Nc3ccccc32)[C@H]2C=Cc3cc(F)ccc3N12 | inactive: 2.92%

3 entries from above, reformatted.
CCC1(C)Cc2ccccc2/C(=C/C(=O)N2CCCCC2)N1 (stereo not given)
  activity change (PNC), negative = inhibition: inconclusive: -30.2%
CCOC(=O)c1ccccc1NC(=O)Cc1ccccc1OC
  activity change (PNC), negative = inhibition: inconclusive: -30.3%
COc1cc(OC)c(NC(=S)Nc2cc(Cl)cc(Cl)c2)cc1Cl
  activity change (PNC), negative = inhibition: inactive: -26.2%

Reformatted tab-delimited: entries from further up.
Structure (SMILES)	activity change (PNC), negative = inhibition
CCOC(=O)c1[nH]c(C)c(C(=O)Nc2ccc(C)c(Cl)c2)c1C	inconclusive: -40.8%
CC(=O)NC(CCS(C)(=O)=O)C(=O)N1CCc2ccccc21 (stereo not given)	inconclusive: -63.7%
CC(NC(=O)Cc1ccccc1)c1cc2c(cc1Br)OCCCO2 (stereo not given)	inconclusive: -72.3%

More results.

Structure (SMILES) | activity change (PNC), negative = inhibition
Cc1cc(C)c(S(=O)(=O)N2CCN(c3nc4c(c(=O)n(C)c(=O)n4C)n3C)CC2)c(C)c1 | inconclusive: -52.7%
O=C(/C=C/c1cccc([N+](=O)[O-])c1)NCCc1ccc(F)cc1 | inconclusive: -41.1%
Cc1ccccc1N(CC(N)=O)S(C)(=O)=O | inactive: 19.5%
COc1ccc(OCC(=O)Nc2ccccc2O)cc1 | inactive: 4.68%
COc1ccc2c(c1)-c1nc(/N=C/c3ccc(O)c(OC)c3)sc1CC2 | inactive: -7.73%
O=C(CSc1ncn[nH]1)Nc1ccc([N+](=O)[O-])cc1Br | inconclusive: -35.3%
Cc1cc(C)n2cc(CSCC(=O)O)nc2n1 | inconclusive: -79%
CCOC(=O)N1CCN(C(=O)c2cn(CC)c3cc(N4CCN(C)CC4)c(F)cc3c2=O)CC1 | inconclusive: -56.4%
COc1cc(OC)cc(-c2nc3ccccc3c(=O)n2OC(=O)c2ccccc2C)c1 | inactive: -22.4%
Cc1cc2cc(CCNC(=O)CC(C)(C)C)c(=O)[nH]c2cc1C | inconclusive: -48.3%
Cc1cc2nc(C)n3c4ccccc4nc3n2n1 | inconclusive: -63.8%
Fc1ccc(-c2cc(C(F)(F)F)nc(-n3cncn3)n2)cc1 | inconclusive: -38.4%
O=C(NC1CCSC1=O)c1ccc(Oc2ccc(F)cc2)nc1 (stereo not given) | inconclusive: -56.5%
CC(C)c1nc2n[nH]c(N)c2c2c1CSC(C)(C)C2 | inconclusive: -38.2%
CC(C)Cn1c(CN(C)Cc2ccccc2)nc2c1c(=O)n(C)c(=O)n2C | inconclusive: -67.3%
O=C(CSc1nc(-c2ccccc2Cl)ns1)c1ccc(Cl)cc1 | inconclusive: -36.5%
Cc1cc(C)cc(NC(N)=S)c1 | inactive: 46.7%
C/C(=N\NS(=O)(=O)c1ccc(Cl)cc1)c1ccc(O)cc1 | inconclusive: -67.9%
CCc1c(C(=O)NNC(=S)NCC2CCCO2)csc1C (stereo not given) | inconclusive: -47.3%
O=C1CCCN1CCCNc1ncnc2c1cnn2-c1ccc(Cl)cc1 | inconclusive: -36%
Cc1sccc1/C=N/NC(=O)c1cccc2ccccc12 | active: -104%
CCc1nc2cc(C)nn2c2nc3ccccc3n12 | inconclusive: -74.3%
Cc1cc2nc3c(c(=O)n2[nH]1)CCCC3 | inconclusive: -37.4%

Structure (SMILES) | activity change (PNC), negative = inhibition
OCCN(CCO)c1ccc(C(c2ccc(Cl)cc2)c2ccc(N(CCO)CCO)cc2Cl)c(Cl)c1 | inconclusive: -53.5%
CC(C)CC(C(=O)Nc1oc(-c2ccccc2)c(-c2ccccc2)c1C#N)N1C(=O)c2ccccc2C1=O (stereo not given) | inactive: -0.177%
COc1ccc(CC(=O)O/N=C(\N)Cc2cccc3ccccc23)cc1 | inactive: -9.83%
COc1ccccc1-c1c(C#N)c(N)nc2c1CCc1ccccc1-2 | inconclusive: -63%
Cc1ccc(-c2cc(C(F)F)nc(NCc3cccs3)n2)cc1 | inconclusive: -50.2%
COc1ccc(-c2nnc(SCC(=O)/C(C#N)=C(\C)N)o2)cc1 | inconclusive: -69.9%
O=C(NCC1CCCO1)c1onc(CSc2cccc(Cl)c2)c1C(=O)O (stereo not given) | inactive: -9.56%
CCCC(O)(c1ccc(Cl)cc1)C(CN1CCOCC1)c1ccccc1 (stereo not given) | inconclusive: -37%
COc1ccc(NC(=O)CSc2nnc(Cc3ccccc3)o2)c(OC)c1 | inconclusive: -58.4%
CCOC(=O)C1CCN(Cc2ccccc2C)CC1 | inactive: 16.6%
CCCN1CCCc2cc(CN)ccc21 | inactive: -20.1%
Cc1cc(NC(=O)CSc2nnc(-c3ccncc3)n2N)ccc1Br | active: -88.9%
CC(=O)c1c(C)oc(C)c1CSCc1ccc(C(=O)O)o1 | inactive: -22.1%
Cc1c(N(C)C(=O)C2CCCN2S(=O)(=O)c2ccccc2)c(=O)n(-c2ccccc2)n1C (stereo not given) | inconclusive: -57.3%
Cc1ccc2c(c1)NC(=O)C(CC(=O)NCc1cccnc1)O2 (stereo not given) | inconclusive: -32.5%
O=C(c1ccc2c(c1)OCO2)N1CCN(c2ccc(C(F)(F)F)cn2)CC1 | inactive: 48%
Cc1cc(C)cc(N2CCCn3c2nc2c3c(=O)n(CCN3CCOCC3)c(=O)n2C)c1 | inactive: 7.58%
CCOC(=O)N1CCN(c2nc(-c3ccc(Cl)cc3)cs2)CC1 | inconclusive: -50.6%
O=C(O)CCC(=O)N1N=C(c2ccccc2)CC1c1ccc2nccnc2c1 (stereo not given) | inconclusive: -42.3%
Fc1ccccc1CNC(=S)Nc1cccc(C(F)(F)F)c1 | inactive: 53.3%
COc1ccc(NC(=O)c2c(C)cc(=O)oc2C)c(OC)c1 | inconclusive: -47.7%
COc1ccc(N2C(=O)CCC(C(=O)N3CCOCC3)C2c2ccc(F)cc2)cc1 (stereo not given) | inconclusive: -66.1%
COc1ccc(C)cc1NS(=O)(=O)c1ccc(NC(=O)CN(c2cc([N+](=O)[O-])ccc2C)S(C)(=O)=O)cc1 | inconclusive: -44.7%

Structure (SMILES) | activity change (PNC), negative = inhibition
O=C(/C=C\c1ccccc1OC(=O)c1ccccc1F)c1cc2ccccc2o1 | inconclusive: -61.9%
C=CCN(C(=O)CN1CCOCC1)c1nc(C)c(-c2ccccc2)s1 | inconclusive: -51.4%
C/C=C/c1ccc(OCCCN2C(=O)NC(C)(C)C2=O)c(OC)c1 | active: -125%
C/C(=N\NC(=O)c1ccccc1O)C1C(=O)c2ccccc2C1=O | inconclusive: -38.9%
Cc1ccc(NC(=O)CNc2ccc(Cl)cc2F)cc1 | inconclusive: -46.6%
Cn1c(COc2ccc(Cl)cc2)nnc1SCc1ncc(-c2ccccc2)o1 | inconclusive: -51%
CC(=O)Nc1ccc(S(=O)(=O)Nc2nc3ccccc3s2)cc1 | inactive: 14.8%
CCc1c(C)c2ccc(O)c(CN(C)C)c2oc1=O | inconclusive: -35.1%
CC(C)CN(CCC(=O)O)CC(C)C | inactive: -1.49%
CCN(CC)S(=O)(=O)c1cccc(C(=O)Oc2cccc(NC(=O)c3cccs3)c2)c1 | active: -108%
COc1ccc(CCN(C)Cc2ccc(OC)c(OCc3ccccc3)c2)cc1OC | inconclusive: -50.1%
COc1cc(C2=NOC(C(=O)N3CCN(c4ccc(F)cc4)CC3)C2)cc(OC)c1OC (stereo not given) | inconclusive: -59.5%
O=C(C1CCCN(S(=O)(=O)c2cccc3nsnc23)C1)N1CCc2ccccc2C1 (stereo not given) | inconclusive: -40%
COc1ccccc1NC(CC(=O)c1ccccc1)C(=O)OCC(=O)c1ccc(F)cc1 (stereo not given) | inactive: -24.3%
N#Cc1cc2c(nc1SCC(O)CS(=O)(=O)Cc1ccccc1)CCCC2 (stereo not given) | inconclusive: -30.5%
Cc1cccc(-n2c(C)n[nH]c2=S)c1 | inactive: 129%
O=C(Cc1cccs1)Nc1ccc(S(=O)(=O)N2CCCCC2)cc1 | inconclusive: -35.8%
O=C(CSc1nnc(CNc2ccccc2)o1)N1CCN(C(=O)c2ccco2)CC1 | inconclusive: -62.6%
Cc1ccccc1/C=C\c1nc2ccccc2c(=O)n1Cc1ccccc1 | inconclusive: -73.1%
COC(=O)C(C)Sc1ccc2nnc(-c3cccc(F)c3)n2n1 (stereo not given) | inconclusive: -61.4%
CC[C@H](C)[C@H](NS(=O)(=O)c1ccc(C)cc1)C(=O)N1CCC(C(=O)N[C@H](C(=O)O)C(C)C)CC1 | inconclusive: -34.1%
